Results on 15 molecules are retold here after PubChem BioAssay AID2685 (National Center for Advancing Translational Sciences (NCATS), 2010).

The test is described as follows: qHTS Assay for Lipid Storage Modulators in Drosophila S3 Cells.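 On cell number change: cells counted by Cell Tracker Red CMTPX staining in the red channel.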 Particulars: BODIPY lipid droplet fluorescence, 18-24 h; for cell number change: measured here: cell count max response, cells fed with added oleic acid. In short, it runs like this:
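Drosophila S3 cells loaded with oleic acid (400 uM, as added) and compounds at several concentrations; lipid droplets imaged by 488-nm laser-scanning cytometry, 500–530 nm intensity and object ratio to cell channel. Percent activity normalized to 20 uM Triacsin C.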
(In general: qHTS replaces the single test concentration by a dilution series.)

[1] abbreviates: measured here: cell number channel AC50, cells fed with added oleic acid.
Setting [2] is: measured here: lipid fluorescence (Fed channel) AC50, cells fed with added oleic acid.

Each structure is given as a SMILES string. Some of the results follow. Further columns of the screen follow, without active or inactive calls. The list favours compounds with an active or inconclusive main result. Words in brackets tell the shape of the fitted curve; partial curves, single points and poor fits give uncertain potencies.

What is called AC50 is the midpoint of the concentration-response curve, whichever way the signal moves. Low values mean activity at low concentration, high ones activity only at high concentration. For `COc1cccc(C2CC(c3ccc(C)cc3)=NN2C(=O)c2ccccc2F)c1OC` (stereo not given), the cell number change was 61.3%. Moreover, the AC50 under setting [1] was 29.1 µM [rising, single point]. Besides, the AC50 under setting [2] was 29.1 µM [rising, partial curve].
Take `CCCCCC(=O)N/N=C(\C)c1ccc(N2CCCCC2)cc1`: the cell number change was -33.4%. Further, the AC50 under setting [1] is 29.1 µM [falling, single point]. The AC50 under setting [2] was 32.6 µM [falling, single point].
On to `Cc1ccc(C)c(NC(=O)c2ccccc2NS(=O)(=O)c2cc([N+](=O)[O-])ccc2C)c1`, for which the cell number change was -16.1%. Further, the AC50 under setting [1] is 0.731 µM [falling, partial curve, poor fit]. Moreover, under setting [2], the AC50 was 11.6 µM [falling, partial curve].
With `Cc1cc(C)nc(SC2CC(=O)N(c3ccc(Cl)cc3)C2=O)n1` (stereo not given), the cell number change stood at 19.3%. Besides, the concentration at half-maximal activity (AC50) under setting [1] is 0.461 µM [rising, partial curve, poor fit].
For `CC(=O)N(c1ccc(Cl)cc1)c1nc(C)cc(C)c1C#N`, the cell number change was determined as 17.4%. In addition, the AC50 under setting [2] was 0.082 µM [rising, partial curve, poor fit].
Regarding `O=C(Nc1nc(-c2ccc(F)cc2)cs1)C1CCCO1` (stereo not given), the cell number change amounted to 44.3%. For the same molecule, under setting [1], the concentration at half-maximal activity (AC50) was 6.51 µM [rising, single point]. Also, under setting [2], the half-maximal activity concentration (AC50) was 18.4 µM [rising, partial curve, poor fit].
Take `CCCN1CCN(S(=O)(=O)c2ccc3c(c2)NC(=O)C(C)S3)CC1` (stereo not given): the cell number change stood at 31%. The AC50 under setting [1] was 20.6 µM [rising, single point].
Take `Cc1cc(NC(=O)c2ccc(F)c(S(=O)(=O)N3CCCCC3)c2)no1`: the cell number change stood at 5.52%. Also, the concentration at half-maximal activity (AC50) under setting [2] is 29.1 µM [rising, single point].
Turning to `CC(Cc1ccccc1)NC(=S)CN1CCCC1=S` (stereo not given), the cell number change was determined as 0.107%.
Consider `Nc1c(C(=O)N/N=C/c2cccnc2)cnn1-c1ccccc1`, for which the cell number change was found to be 13.8%. In addition, the AC50 under setting [2] was 0.206 µM [rising, full curve, poor fit].
For `CC(=NC1CCCC1)c1c(C)[nH]n(-c2nc3ccccc3s2)c1=O`, under setting [2], the AC50 was 29.1 µM [rising, single point].
Turning to `c1ccc(CC2CCN(C3=Nc4cccc5cccc3c45)CC2)cc1`, the cell number change was 49.9%. Besides, the AC50 under setting [1] was 9.2 µM [rising, partial curve]. The AC50 under setting [2] was 13 µM [rising, partial curve].
As for `COc1cc(CNc2ccc(O)cc2)cc(Br)c1OCc1ccccc1`, the cell number change is -53.2%. In addition, the AC50 under setting [1] was 20.6 µM [falling, partial curve, poor fit]. Moreover, under setting [2], the half-maximal activity concentration (AC50) is 29.1 µM [falling, single point].
In the case of `Cc1ccc(NC(=O)C2CCC(=O)N2C(=O)OCc2ccccc2)cc1` (stereo not given), the cell number change was -16.7%. Further, under setting [2], the AC50 is 0.116 µM [rising, single point].
As for `Cc1cc(C)cc(OCC(=O)O/N=C(\N)c2ccccc2Cl)c1`, the cell number change came out at 42.4%. Further, under setting [1], the AC50 was 25.9 µM [rising, single point]. In addition, the concentration at half-maximal activity (AC50) under setting [2] was 8.2 µM [rising, partial curve, poor fit].
